Test results published in paper PMC6270063, “Novel Antimicrobial Peptide Dendrimers with Amphiphilic Surface and Their Interactions with Phospholipids — Insights from Mass Spectrometry” (Molecules, 2013).

Key:
[1] = ESI-MS collision-induced dissociation of dendrimer/DMPG [1:1]2+ complexes; format: physicochemical; conditions: [1:1]2+ complex, gas phase, center-of-mass collision energy, single collision conditions; average of three measurements
[2] = ESI-MS collision-induced dissociation of dendrimer/DMPC [1:1]2+ complexes; format: physicochemical; conditions: [1:1]2+ complex, gas phase, center-of-mass collision energy, single collision conditions; average of three measurements

In the case of `NCCCC[C@H](NC(=O)OCc1ccccc1Cl)C(=O)NCCNC(=O)CCN(CCC[C@@H](C(=O)Nc1cccnc1)N(CCC(=O)NCCNC(=O)[C@H](CCCCN)NC(=O)OCc1ccccc1Cl)CCC(=O)NCCNC(=O)[C@H](CCCCN)NC(=O)OCc1ccccc1Cl)CCC(=O)NCCNC(=O)[C@H](CCCCN)NC(=O)OCc1ccccc1Cl` [Dendrimer 3a], the “Collision energy for 50% dissociation of the complex (CID50), DMPG/dendrimer” value [1] is reported as 0.55 eV and the “Collision energy for 50% dissociation of the complex (CID50), DMPC/dendrimer” value [2] is reported as 0.36 eV.

With `N[C@@H](CCCCNC(=O)OCc1ccccc1Cl)C(=O)NCCNC(=O)CCN(CCC[C@@H](C(=O)Nc1cccnc1)N(CCC(=O)NCCNC(=O)[C@@H](N)CCCCNC(=O)OCc1ccccc1Cl)CCC(=O)NCCNC(=O)[C@@H](N)CCCCNC(=O)OCc1ccccc1Cl)CCC(=O)NCCNC(=O)[C@@H](N)CCCCNC(=O)OCc1ccccc1Cl` [Dendrimer 3e] the “Collision energy for 50% dissociation of the complex (CID50), DMPG/dendrimer” value [1] was 0.45 eV and the “Collision energy for 50% dissociation of the complex (CID50), DMPC/dendrimer” value [2] was 0.33 eV.
